# Plain letter strings leave the end groups untold. One purity is given for all peptides; the source may state it once.
# Test: general procedure: Fmoc solid-phase peptide synthesis; Rink Amide MBHA resin LL (100-200 mesh, 0.30-0.40 mmol g^-1, Novabiochem); 2-chlorotrityl chloride resin for cyclic Exam; HCTU, HOBt
# Settings: whole synthesis, analytical HPLC (UV 230 nm), scale of the general procedure typically 0.1 mmol
row,Sequence,final HPLC purity [%]
1,RAUAUAUAUAUAUAUAUAUAUAGRGDRGDRGDG,>95
2,RAUAUAUAUAUAUAUAUAUAUAGRGDRGDRGDRGDG,>95
3,RGDRGDRGDAUAUAUAUAUAUAUAUAUAUAR,>95

# Reference: US20240424134A1 (UIF (University Industry Foundation), Yonsei University, priority 2022, published 2024)
